Results reported in paper PMC5799240.
These are yes or no findings as the source states them, for the method shown. Some entries that bind do so weakly or less than the wild type.

Amino acid sequences for entries named in this document (tags omitted).
UniProt P39076: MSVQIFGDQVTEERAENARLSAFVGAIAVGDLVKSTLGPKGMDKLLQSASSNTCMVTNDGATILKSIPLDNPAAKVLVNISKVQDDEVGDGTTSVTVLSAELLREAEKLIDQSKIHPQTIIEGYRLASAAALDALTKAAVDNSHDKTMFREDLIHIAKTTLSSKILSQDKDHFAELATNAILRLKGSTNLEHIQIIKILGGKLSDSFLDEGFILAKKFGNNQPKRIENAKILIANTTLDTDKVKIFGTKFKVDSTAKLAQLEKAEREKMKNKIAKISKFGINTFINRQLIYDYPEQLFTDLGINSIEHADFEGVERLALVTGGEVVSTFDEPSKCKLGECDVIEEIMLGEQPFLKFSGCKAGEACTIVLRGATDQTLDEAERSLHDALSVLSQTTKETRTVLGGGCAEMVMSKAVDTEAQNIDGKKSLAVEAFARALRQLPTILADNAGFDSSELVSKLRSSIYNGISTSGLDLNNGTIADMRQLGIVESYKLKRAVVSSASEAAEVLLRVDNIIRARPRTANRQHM
UniProt P39078: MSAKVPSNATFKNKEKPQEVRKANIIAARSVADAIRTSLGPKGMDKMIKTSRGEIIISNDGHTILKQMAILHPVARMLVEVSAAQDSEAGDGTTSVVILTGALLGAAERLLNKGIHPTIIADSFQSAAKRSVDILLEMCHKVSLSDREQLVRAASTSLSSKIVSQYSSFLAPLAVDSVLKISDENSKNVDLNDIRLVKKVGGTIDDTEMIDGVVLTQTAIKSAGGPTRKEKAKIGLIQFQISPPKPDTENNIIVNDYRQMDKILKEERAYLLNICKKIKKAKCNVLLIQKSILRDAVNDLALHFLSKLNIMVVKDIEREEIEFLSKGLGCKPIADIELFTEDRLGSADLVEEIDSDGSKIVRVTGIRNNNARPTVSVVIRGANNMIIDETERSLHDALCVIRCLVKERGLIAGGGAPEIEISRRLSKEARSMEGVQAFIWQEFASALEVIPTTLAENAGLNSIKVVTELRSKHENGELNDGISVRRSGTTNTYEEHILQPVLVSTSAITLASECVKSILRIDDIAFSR

Assays:
[1] = biological target: TRiC subunit CCT2 with an internal eGFP tag (CCT2-eGFP) (yeast (BY4741 or BY4742)) (UniProt P39076); assay: cryo-EM structure; both-ring closed state: purified tagged TRiC incubated with 1 mM ATP, 5 mM MgCl2, 5 mM Al(NO3)3, 30 mM NaF for 1 h at 30 °C before freezing; subunit located by the extra density of its tag; both purified
[2] = biological target: TRiC subunit CCT2 (yeast (endogenous in BY4741 or BY4742)) (UniProt P39076); assay: cryo-EM structure; open nucleotide partially preloaded (NPP) state of purified tagged TRiC; grid pretreated with polylysine; subunit located by the extra density of its eGFP tag; both purified

binding [1]	binding [2]	Substance
binds		TRiC subunit CCT2 with an internal eGFP tag (CCT2-eGFP) (from UniProt P39076 1-527)
	binds	TRiC subunit CCT4 with an internal eGFP tag (CCT4-eGFP) (from UniProt P39078 1-528)
